# Reference: paper PMC10665427
# No constants are given. Whether binding was seen depends on the method and setting. In cells and extracts the contact can be indirect. Here binding means that the protein was enriched with, or labelled near, the bait; the list need not be complete. Tags and fused reporters may be left off the sequences shown.
# Molecular target: T1, Lon^TRAP-Twin-Strep-tag (Lon S674A active-site mutant) (C. crescentus) (UniProt B8GX12)
# T1 sequence: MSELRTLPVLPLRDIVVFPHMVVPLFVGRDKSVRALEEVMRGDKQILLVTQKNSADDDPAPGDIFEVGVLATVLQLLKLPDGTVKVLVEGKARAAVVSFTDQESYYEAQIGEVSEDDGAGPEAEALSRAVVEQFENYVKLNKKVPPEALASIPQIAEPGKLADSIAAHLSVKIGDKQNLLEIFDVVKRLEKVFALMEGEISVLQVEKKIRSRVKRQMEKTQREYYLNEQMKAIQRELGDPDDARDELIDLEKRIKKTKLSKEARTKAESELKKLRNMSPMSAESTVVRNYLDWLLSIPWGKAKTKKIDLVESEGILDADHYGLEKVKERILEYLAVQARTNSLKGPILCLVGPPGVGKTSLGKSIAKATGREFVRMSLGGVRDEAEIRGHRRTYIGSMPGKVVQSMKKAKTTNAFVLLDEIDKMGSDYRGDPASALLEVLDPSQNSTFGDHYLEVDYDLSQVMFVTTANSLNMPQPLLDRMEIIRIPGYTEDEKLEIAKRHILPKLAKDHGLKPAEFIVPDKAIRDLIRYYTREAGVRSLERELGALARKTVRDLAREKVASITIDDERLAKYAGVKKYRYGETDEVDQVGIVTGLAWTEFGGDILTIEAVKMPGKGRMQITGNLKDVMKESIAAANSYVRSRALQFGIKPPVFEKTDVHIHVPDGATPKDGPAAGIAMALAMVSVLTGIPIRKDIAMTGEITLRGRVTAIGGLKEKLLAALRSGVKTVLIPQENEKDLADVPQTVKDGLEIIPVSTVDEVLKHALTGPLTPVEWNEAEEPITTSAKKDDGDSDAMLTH
# Assay: affinity purification with mass spectrometry; Twin-Strep-tagged Lon^TRAP (bait) purified on Strep-TactinXT from lysates of Δlon C. crescentus after 2 h xylose; elution fractions TMT-labelled and analysed by LC-MS; compared with Lon^WT and a no-Lon control; two replicates
row,Substance,binding
1,FliK,binds
2,FliX,binds
3,"LarA (CCNA_03707), endogenous",binds
4,StaR,binds
